From PubChem BioAssay (Tox21)
“And” between values parts separate entries of the source, which are not always exact repeats. Identical values can stand only once. Inconclusive results, whose numbers are uncertain, are shown with a selection of clear calls. Potencies of inconclusive entries are doubtful fits and often do not repeat. The source holds several records for some structures; these can differ, active in one and inactive in another. The source made the active and inactive calls. Unless noted, the call rests on the fitted dose curve; in most records, active means well fitted activation curve with a large enough effect in the repeat runs; inconclusive means weak or mixed curves; inactive means no such curve, though single readings can be large or run the other way.

The chains behind the UniProt entries cited, without tags or fusion partners. Where a name states a change or a piece, a line headed by the entry shows the natural chain unless it says otherwise.
UniProt O75469: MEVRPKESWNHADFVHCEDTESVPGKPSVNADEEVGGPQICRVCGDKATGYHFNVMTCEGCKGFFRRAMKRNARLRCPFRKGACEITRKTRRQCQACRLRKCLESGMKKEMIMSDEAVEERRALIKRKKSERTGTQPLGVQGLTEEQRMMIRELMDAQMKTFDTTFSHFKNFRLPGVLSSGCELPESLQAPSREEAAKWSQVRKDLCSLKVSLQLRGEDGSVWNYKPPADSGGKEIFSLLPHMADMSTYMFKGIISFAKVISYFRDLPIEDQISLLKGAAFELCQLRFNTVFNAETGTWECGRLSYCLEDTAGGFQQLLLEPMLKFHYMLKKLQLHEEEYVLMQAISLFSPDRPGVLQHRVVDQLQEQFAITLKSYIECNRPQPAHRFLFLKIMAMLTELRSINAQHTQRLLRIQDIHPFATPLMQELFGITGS
UniProt P22303: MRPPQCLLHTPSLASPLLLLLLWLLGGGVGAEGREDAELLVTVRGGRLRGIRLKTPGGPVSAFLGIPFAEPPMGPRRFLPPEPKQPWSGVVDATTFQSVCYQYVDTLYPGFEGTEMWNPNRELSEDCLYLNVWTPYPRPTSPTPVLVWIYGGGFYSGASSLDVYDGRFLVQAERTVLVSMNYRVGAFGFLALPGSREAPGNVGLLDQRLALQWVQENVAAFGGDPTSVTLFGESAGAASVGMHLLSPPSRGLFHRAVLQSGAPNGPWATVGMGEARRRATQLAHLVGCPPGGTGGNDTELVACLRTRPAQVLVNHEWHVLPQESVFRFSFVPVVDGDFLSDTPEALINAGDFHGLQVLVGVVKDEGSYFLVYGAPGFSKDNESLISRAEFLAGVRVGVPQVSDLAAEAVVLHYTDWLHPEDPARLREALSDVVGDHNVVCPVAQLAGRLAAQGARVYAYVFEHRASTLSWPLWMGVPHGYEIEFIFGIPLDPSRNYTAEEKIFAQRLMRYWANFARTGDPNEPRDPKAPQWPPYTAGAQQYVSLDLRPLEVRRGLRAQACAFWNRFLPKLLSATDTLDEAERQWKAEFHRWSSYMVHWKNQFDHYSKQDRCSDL

Each compound was assayed against Nuclear receptor subfamily 1 group I member 2 (Homo sapiens) (UniProt O75469) (assay: Human pregnane X receptor (PXR) small molecule agonists, qHTS assay (AID 1346982; further: nearly all actives have a fitted effect of over 35% in size)). Conditions: PXR-Luc HepG2, CYP3A4 luciferase reporter, 24 h; series mostly up to 92.4 µM; activation: at the top concentration.
Method in brief: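 Luminescence (ONE-Glo, 30 min RT) after 24 hr compound exposure of PXR-Luc HepG2 cells; cells rested 5 hr post-plating in 5% charcoal-stripped FBS medium.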
On the % scale 0 is the no-effect control and ±100 the full control effect; potency means the concentration at half of the fitted maximal effect.

Compound	Potency	activation
CN(C)N=O	inactive	–
Oc1ccccc1-c1ccccc1	inconclusive: 61.1 µM [activator, single point]	–
Nc1ccc(Br)cc1	inconclusive: 68.5 µM [activator, single point]	–
O=C(NC(=O)c1c(F)cccc1F)Nc1cc(Cl)c(OC(F)(F)C(F)C(F)(F)F)cc1Cl (stereo not drawn)	inconclusive: 26.6 µM [activator, partial curve]	–
CC(c1ccc(O)cc1)c1ccc(O)cc1	active: 45.5 µM and active: 61.1 µM	–
COc1ccc(O)c(C(C)(C)C)c1	inconclusive: 61.3 µM [activator, partial curve]	–
CCC(=O)Nc1ccc(Cl)c(Cl)c1	inconclusive: 70 µM [activator, single point] and inconclusive: 68.6 µM [activator, single point]	–
COC(=O)Nc1nc2ccccc2[nH]1	inconclusive: 77 µM [activator, partial curve, poor fit]	–
COP(=S)(OC)Oc1cc(Cl)c(Cl)cc1Cl	active: 30.4 µM and inactive	–
C#CCN1C(=O)COc2cc(F)c(N3C(=O)C4=C(CCCC4)C3=O)cc21	inconclusive: 68.6 µM [activator, single point]	–
CCOP(=O)(OCC)SCCSCC	active: 58.3 µM and inconclusive: 68.6 µM [activator]	–
CC(Cc1ccccc1)NCCn1cnc2c1c(=O)n(C)c(=O)n2C (stereo not drawn)	–	inactive: -6.87%
Nc1ccccc1	inconclusive: 62.3 µM [activator, single point]	–
CC(C)(O)C(Cl)(Cl)Cl	–	inactive: 2.68% [at 42.5 µM]

The compounds below were run against Acetylcholinesterase (Homo sapiens) (UniProt P22303) (assay: Acetylcholinesterase (AChE) small molecule antagonists: enzyme-based qHTS assay (AID 1347397; calls by dose curve; further: nearly all actives have a fitted effect of over 55% in size)). Conditions: Potency: AChE enzyme activity inhibition; series mostly up to 115 µM; activity change, negative = inhibition: at the top concentration.
Method in brief: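 Enzyme inhibition was scored from DTNB-detected thiocholine formed by recombinant human AChE acting on acetylthiocholine. The 30 min compound preincubation and 10 min substrate reaction were both run at room temperature, with DMSO as vehicle control.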

Compound	Potency	activity change, negative = inhibition
Nc1cc(Cl)cc(C(=O)O)c1Cl	inactive	–
COc1ccc(O)c(C(C)(C)C)c1	inactive	–
COP(=S)(Oc1cc(Cl)c(Br)cc1Cl)c1ccccc1 (stereo not drawn)	inconclusive: 79.6 µM [falling, single point]	–
C[C@@H]1CC2=CC(=O)CC[C@@H]2[C@H]2CC[C@@]3(C)[C@@H](CC[C@]3(C)O)[C@@H]21	–	inactive: 0.475% [at 53 µM]

What follows are compounds tested against Acetylcholinesterase (Homo sapiens) (UniProt P22303) (assay: Acetylcholinesterase (AChE) small molecule antagonists: fluorescence cell-based qHTS assay (AID 1347398; calls by dose curve; further: nearly all actives have a fitted effect of over 50% in size)). Conditions: SH-SY5Y cells; Potency: AChE activity; series mostly up to 115 µM; activity change, negative = inhibition: at the top concentration.
Method in brief: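 Endogenous acetylcholinesterase of SH-SY5Y neuroblastoma cells is measured in situ. After overnight attachment and 30 min compound exposure, cells receive acetylthiocholine and Thiolite Green; fluorescence is read after 40 min at room temperature.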

Compound	activity change, negative = inhibition	Potency
NC(=O)C(Cl)(Cl)Cl	inactive: 6.65%	–
CCC(COC(=O)c1cc(OC)c(OC)c(OC)c1)(c1ccccc1)N(C)C (stereo not drawn)	–	inconclusive: 38.9 µM [inhibitor, partial curve, poor fit]
COP(=S)(OC)Oc1cc(Cl)c(Cl)cc1Cl	–	inconclusive: 43.6 µM [inhibitor, partial curve, poor fit]
CCC(C)Nc1c([N+](=O)[O-])cc(C(C)(C)C)cc1[N+](=O)[O-] (stereo not drawn)	inactive: 6.58%	–
CC(C)C#N	–	inactive
